Test results from paper PMC4407832.
Results are given in words; binding and its absence hold for the method and conditions named. Binding seen in cells or lysates may run through a third protein. Some binding calls cover weakened binding; strength is not graded here. For some assays here: Tags and fused reporters may be left off the sequences shown.

Amino acid sequences for entries named in this document (tags omitted).
UniProt P34152: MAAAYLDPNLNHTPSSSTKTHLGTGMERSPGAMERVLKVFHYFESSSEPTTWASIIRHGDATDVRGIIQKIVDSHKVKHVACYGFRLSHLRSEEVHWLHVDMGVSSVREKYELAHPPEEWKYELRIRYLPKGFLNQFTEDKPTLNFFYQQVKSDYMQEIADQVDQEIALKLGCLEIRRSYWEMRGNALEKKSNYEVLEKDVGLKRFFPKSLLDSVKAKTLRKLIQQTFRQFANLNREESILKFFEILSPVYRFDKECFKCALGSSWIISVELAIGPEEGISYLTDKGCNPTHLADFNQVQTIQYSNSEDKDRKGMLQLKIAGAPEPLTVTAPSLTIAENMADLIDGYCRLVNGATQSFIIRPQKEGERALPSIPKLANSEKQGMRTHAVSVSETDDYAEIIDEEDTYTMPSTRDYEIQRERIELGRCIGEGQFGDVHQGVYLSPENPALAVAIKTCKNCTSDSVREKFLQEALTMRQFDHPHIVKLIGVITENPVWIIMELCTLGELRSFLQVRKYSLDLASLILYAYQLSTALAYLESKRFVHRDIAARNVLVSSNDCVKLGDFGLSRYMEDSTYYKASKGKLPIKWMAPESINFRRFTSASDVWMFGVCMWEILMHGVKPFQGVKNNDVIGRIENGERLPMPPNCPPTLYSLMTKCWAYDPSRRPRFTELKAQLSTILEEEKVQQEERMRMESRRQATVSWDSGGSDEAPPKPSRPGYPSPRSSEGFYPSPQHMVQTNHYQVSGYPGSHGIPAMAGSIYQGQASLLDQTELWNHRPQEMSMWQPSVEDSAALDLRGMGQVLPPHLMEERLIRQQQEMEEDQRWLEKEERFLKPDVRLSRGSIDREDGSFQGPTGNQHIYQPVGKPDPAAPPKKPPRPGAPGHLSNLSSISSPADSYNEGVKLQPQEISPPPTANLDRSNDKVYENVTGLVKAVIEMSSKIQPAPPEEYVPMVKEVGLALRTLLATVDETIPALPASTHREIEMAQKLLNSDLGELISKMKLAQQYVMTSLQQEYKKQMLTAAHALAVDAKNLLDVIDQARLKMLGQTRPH
UniProt Q05397: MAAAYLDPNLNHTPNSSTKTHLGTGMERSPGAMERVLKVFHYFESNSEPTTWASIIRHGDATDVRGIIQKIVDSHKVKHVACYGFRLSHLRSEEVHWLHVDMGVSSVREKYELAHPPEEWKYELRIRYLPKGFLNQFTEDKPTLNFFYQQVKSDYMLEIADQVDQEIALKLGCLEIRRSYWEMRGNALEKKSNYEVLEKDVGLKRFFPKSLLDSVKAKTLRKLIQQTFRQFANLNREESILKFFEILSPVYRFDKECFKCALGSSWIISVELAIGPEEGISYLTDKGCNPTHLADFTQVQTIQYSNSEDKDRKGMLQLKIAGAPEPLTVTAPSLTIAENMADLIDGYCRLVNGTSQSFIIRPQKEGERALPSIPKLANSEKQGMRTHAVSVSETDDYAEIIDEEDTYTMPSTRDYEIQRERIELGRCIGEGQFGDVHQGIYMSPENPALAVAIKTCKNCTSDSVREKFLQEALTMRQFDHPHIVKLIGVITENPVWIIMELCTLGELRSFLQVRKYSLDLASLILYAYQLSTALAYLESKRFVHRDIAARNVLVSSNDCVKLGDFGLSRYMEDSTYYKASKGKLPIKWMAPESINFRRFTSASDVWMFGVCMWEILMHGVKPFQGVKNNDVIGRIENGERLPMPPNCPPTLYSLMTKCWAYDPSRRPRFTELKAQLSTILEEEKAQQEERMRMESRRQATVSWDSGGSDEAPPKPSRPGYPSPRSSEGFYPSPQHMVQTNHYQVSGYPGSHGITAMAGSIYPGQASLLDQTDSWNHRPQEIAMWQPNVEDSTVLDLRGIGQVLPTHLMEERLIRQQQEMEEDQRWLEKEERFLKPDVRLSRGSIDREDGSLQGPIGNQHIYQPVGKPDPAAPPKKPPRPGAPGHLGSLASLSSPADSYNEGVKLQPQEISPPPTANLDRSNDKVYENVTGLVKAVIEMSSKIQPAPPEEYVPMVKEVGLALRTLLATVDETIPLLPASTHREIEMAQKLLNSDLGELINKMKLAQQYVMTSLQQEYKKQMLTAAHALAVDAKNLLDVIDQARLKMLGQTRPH
UniProt P06748: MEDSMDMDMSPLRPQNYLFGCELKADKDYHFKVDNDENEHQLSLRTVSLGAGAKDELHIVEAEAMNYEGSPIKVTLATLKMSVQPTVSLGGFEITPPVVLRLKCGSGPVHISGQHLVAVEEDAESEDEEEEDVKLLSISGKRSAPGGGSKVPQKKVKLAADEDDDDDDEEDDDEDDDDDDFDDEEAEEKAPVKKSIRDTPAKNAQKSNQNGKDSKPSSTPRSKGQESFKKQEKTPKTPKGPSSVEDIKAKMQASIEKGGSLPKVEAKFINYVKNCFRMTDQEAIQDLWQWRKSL

Assays:
[1] = biological target: T1, GFP-NS (green fluorescent protein tagged human nucleostemin) (human) (UniProt Q9BVP2); assay: co-IP; anti-GFP antibody, overnight at 4°C, protein A Plus agarose; lysates of MDA-MB-231 cells transfected with GFP or GFP-NS; immunoblot for GFP, mTOR, FAK and Akt
T1 sequence: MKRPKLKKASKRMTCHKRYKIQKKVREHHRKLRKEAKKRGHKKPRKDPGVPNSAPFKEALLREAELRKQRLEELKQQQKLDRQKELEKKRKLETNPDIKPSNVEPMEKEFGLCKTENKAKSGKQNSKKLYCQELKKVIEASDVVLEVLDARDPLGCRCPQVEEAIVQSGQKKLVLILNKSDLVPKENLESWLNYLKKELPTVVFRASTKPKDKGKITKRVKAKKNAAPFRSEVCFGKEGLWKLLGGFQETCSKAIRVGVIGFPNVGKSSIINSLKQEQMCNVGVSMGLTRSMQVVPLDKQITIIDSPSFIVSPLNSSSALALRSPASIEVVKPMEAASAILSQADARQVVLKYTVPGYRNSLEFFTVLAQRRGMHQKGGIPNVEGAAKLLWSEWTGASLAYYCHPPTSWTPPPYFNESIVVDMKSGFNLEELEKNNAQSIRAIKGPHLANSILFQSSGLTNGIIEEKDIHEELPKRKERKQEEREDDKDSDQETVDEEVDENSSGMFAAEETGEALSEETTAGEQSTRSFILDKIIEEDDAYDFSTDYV

[2] = biological target: GFP-tagged murine FAK wildtype (focal adhesion kinase) (murine) (UniProt P34152); assay: co-IP; polyclonal anti-FAK antibody, overnight at 4°C, protein A Plus agarose; lysates of three FAK-WT and three FAK-KD MDA-MB-231 orthotopic tumors; immunoblot for B23

binding [1]	binding [2]	Substance
binds	–	focal adhesion kinase (FAK), endogenous (from UniProt Q05397 1-1052) (enzyme)
–	binds	nucleolar phosphoprotein B23 (nucleophosmin) (from UniProt P06748 1-294)
